Source: paper doi:10.1101/2021.10.14.464399
These are yes or no findings as the source states them, for the method shown. Some binding calls cover weakened binding; strength is not graded here.

Target: T1, ELONGATED HYPOCOTYL5 (HY5) (Arabidopsis thaliana) (UniProt O24646)
T1 sequence: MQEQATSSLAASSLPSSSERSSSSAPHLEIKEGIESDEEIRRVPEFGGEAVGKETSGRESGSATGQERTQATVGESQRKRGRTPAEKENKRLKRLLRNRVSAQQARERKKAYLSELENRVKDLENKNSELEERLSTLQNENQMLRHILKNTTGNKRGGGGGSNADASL
Assay: two-hybrid

B1: BBX21^P314L (protein, UniProt Q9LQZ7 1-331)
chain: MKIRCDVCDKEEASVFCTADEASLCGGCDHQVHHANKLASKHLRFSLLYPSSSNTSSPLCDICQDKKALLFCQQDRAILCKDCDSSIHAANEHTKKHDRFLLTGVKLSATSSVYKPTSKSSSSSSSNQDFSVPGSSISNPPPLKKPLSAPPQSNKIQPFSKINGGDASVNQWGSTSTISEYLMDTLPGWHVEDFLDSSLPTYGFSKSGDDDGVLPYMEPEDDNNTKRNNNNNNNNNNNTVSLPSKNLGIWVPQIPQTLPSSYPNQYFSQDNNIQFGMYNKETSPEVVSFAPIQNMKQQGQNNKRWYDDGGFTVLQITPPPLSSNKKFRSFW
With B1 the binding was “binds”.

B2: BBX21 (protein, UniProt Q9LQZ7 1-331)
chain: MKIRCDVCDKEEASVFCTADEASLCGGCDHQVHHANKLASKHLRFSLLYPSSSNTSSPLCDICQDKKALLFCQQDRAILCKDCDSSIHAANEHTKKHDRFLLTGVKLSATSSVYKPTSKSSSSSSSNQDFSVPGSSISNPPPLKKPLSAPPQSNKIQPFSKINGGDASVNQWGSTSTISEYLMDTLPGWHVEDFLDSSLPTYGFSKSGDDDGVLPYMEPEDDNNTKRNNNNNNNNNNNTVSLPSKNLGIWVPQIPQTLPSSYPNQYFSQDNNIQFGMYNKETSPEVVSFAPIQNMKQQGQNNKRWYDDGGFTVPQITPPPLSSNKKFRSFW
With B2 the binding was “binds”.
